Test [1] deals with protein L (Pierce), biotinylated (Peptostreptococcus magnus). Nature of the test: protein-DNA complex captured on biotinylated protein in streptavidin-coated PCR tubes; co-captured DNA detected by PCR and gel.
Test [2] has the same target. Nature of the test: capture on coated PCR tubes without 3F10 mAb; PCR and gel.
Test [3] shares this target. Kind of test: capture on coated PCR tubes in the presence of 3.4 nM 3F10 mAb; PCR and gel.
Test [4] has the same target. Kind of test: emulsion expression with 3.4 nM 3F10 mAb; capture on coated PCR tubes; PCR and gel.

No constants are given. Whether binding was seen depends on the method and setting. For part of these data: Binding can be weak; no strength is given. Tags and fused reporters may be left off the sequences shown.

B1: HA-tagged scArc repressor expressed from pIE3A / pIE3aA-derived genetic elements (protein)
chain: MSGSGGGSGGGHMKGMSKMPQFNLRWPREVLDLVRKVAEENGRSVNSEIYQRVMESFKKEGRIGAGGGSGGGSGGGSGGGHMKGMSKMPQFNLRWPREVLDLVRKVAEENGRSVNSEIYQRVMESFKKEGRIGAGGGSGGGSMGSTGGAAARSYPYDVPDYA
In the case of B1, in test [1], the binding result is reported as “no binding”.

B2: scArc expressed from pIE7aA, pIE7a2A, pIE7a3A or pIE7a4A (protein)
chain: MGSTGGAAAKEAAAKEAAAKEAAAKELAAKEAAAKEAAAKEAAAKELAAGSGGGSGGGHMKGMSKMPQFNLRWPREVLDLVRKVAEENGRSVNSEIYQRVMESFKKEGRIGAGGGSGGGSGGGSGGGHMKGMSKMPQFNLRWPREVLDLVRKVAEENGRSVNSEIYQRVMESFKKEGRIGAGGGSGGGSYPYDVPDYA
In the case of B2, in test [1], the binding result is listed as “no binding”.

B3: Vκ(E5)-scArc-HA fusion protein (Vκ(E5) fused to the N-terminus of scArc; pIE2AVκ(E5) series constructs) (protein)
chain: MGSTDIQMTQSPSSLSASVGDRVTITCRASQSVSSYLNWYQQKPGKAPKLLIYLASRLQSGVPSRFSGSGSGTDFTLTISSLQPEDFATYYCQQNWWLPPTFGQGTKVEIKRAAAGSGGGSGGGHMKGMSKMPQFNLRWPREVLDLVRKVAEENGRSVNSEIYQRVMESFKKEGRIGAGGGSGGGSGGGSGGGHMKGMSKMPQFNLRWPREVLDLVRKVAEENGRSVNSEIYQRVMESFKKEGRIGAGGGSGGGSYPYDVPDYA
Consider B3, for which the binding result in test [2], in test [3] and in test [4] was “binds” each time.

B4: HA-tagged scArc repressor expressed from pIE2aA / pIE2a^2A-derived genetic elements (protein)
chain: MGSTGGAAAGSGGGSGGGHMKGMSKMPQFNLRWPREVLDLVRKVAEENGRSVNSEIYQRVMESFKKEGRIGAGGGSGGGSGGGSGGGHMKGMSKMPQFNLRWPREVLDLVRKVAEENGRSVNSEIYQRVMESFKKEGRIGAGGGSGGGSYPYDVPDYA
Turning to B4, the binding result in test [1] is on record as “no binding”.

The values above are taken from patent US20090176209A1.
